Results as given in the supplement of paper PMC12823440, “Inhibitors supercharge kinase turnover through native proteolytic circuits” (Nature, 2025).
Counter-ions that a name gives are not always drawn. Some of the results follow. The calls rarely recur for the same compound in another form.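 In K562 cells expressing nanoluciferase-fused kinases, luminescence was recorded at 4 h intervals between 2 and 18 h, normalized as percent of control with DMSO at 100% and a positive control at 0%. A significant (2 sigma) signal drop marks a time point as decreased. The authors' rule for a hit is not shown and takes in more than the number of time points.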

Sequences of proteins named here, by UniProt entry; tags and fusion partners are left off. A change or cut given only in a name is not applied to a line headed by its entry.
UniProt P43403: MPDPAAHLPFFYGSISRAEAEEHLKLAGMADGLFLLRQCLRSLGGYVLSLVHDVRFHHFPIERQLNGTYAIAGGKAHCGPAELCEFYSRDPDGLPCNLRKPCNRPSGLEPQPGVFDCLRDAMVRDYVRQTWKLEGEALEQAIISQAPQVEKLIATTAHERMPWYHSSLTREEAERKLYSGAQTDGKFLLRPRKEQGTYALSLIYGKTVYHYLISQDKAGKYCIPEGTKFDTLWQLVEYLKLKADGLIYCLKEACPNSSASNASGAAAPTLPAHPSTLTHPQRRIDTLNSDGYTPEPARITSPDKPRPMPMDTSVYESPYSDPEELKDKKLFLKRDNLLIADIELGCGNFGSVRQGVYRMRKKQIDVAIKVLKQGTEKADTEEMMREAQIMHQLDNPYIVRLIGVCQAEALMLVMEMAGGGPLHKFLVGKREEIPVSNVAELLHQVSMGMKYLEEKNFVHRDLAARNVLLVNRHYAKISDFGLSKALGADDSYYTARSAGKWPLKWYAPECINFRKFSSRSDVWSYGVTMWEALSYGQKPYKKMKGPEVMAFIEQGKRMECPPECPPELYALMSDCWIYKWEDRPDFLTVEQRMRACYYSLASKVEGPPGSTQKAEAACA

target: ZAP70 (UniProt P43403); assay: number of time points (of 5) at which kinase-Nluc abundance scored as decreased, DMSO-normalised (count); higher = more persistent destabilization; settings: K562; 2-18 h

`O=C(O)c1cc(N(Cc2ccccc2O)Cc2ccccc2O)ccc1O` [Lavendustin B] (10 µM) was tested. Which “number of time points” value did it give?
The value was 0.

How did the “number of time points” value turn out when `Cc1ccc2c(Nc3cccc(Cl)c3F)nccc2c1NC(=O)c1csc2c(N)ncnc12` [Belvarafenib] (10 µM) was run?
Its value is 0.

Which “number of time points” value does the source give for `Cn1cc(-c2cnc3cnn(S(=O)(=O)c4cnc5ccc(-c6cnn(C)c6)cn45)c3c2)cn1` [Glumetinib] (10 µM) here?
Its value is 0.

How did the “number of time points” value turn out when `CNC(=O)c1ccccc1Oc1nc(Nc2cc(OC)c(OC)c(OC)c2)ncc1Br` (2.5 µM) was run?
Its value is 0.

How did the “number of time points” value turn out when `COc1cc(-c2cn[nH]c2)ccc1C(=O)Nc1ccc2c(c1)CCNCC2` (10 µM) was run?
The value was 0.

For `COCCNc1cc(NC(=O)N2CCCc3cc(CN4CCN(C)CC4=O)c(C=O)nc32)ncc1C#N` [Roblitinib] (10 µM), which “number of time points” value is on record?
Its value is 0.

Which “number of time points” value does the source give for `CC(C)c1cc(/C=C(\C#N)C(=O)NCCCc2ccccc2)cc(C(C)C)c1O` (10 µM) here?
Its value is 0.

`C=CCc1ccc(O)c(-c2ccc(O)c(CC=C)c2)c1` [Honokiol] (10 µM) was tested. Which “number of time points” value did it give?
The value was 0.

For `CNc1nc(Nc2cn(C(C)(C)C#N)nc2C)ncc1C(F)(F)F` (10 µM), which “number of time points” value is on record?
The value was 0.

How did the “number of time points” value turn out when `C[C@@H]1CCNC(=O)c2cc3ccc(C(=O)Nc4nc5ccccc5n4CCCN(C)C)cc3n21` (10 µM) was run?
The value was 0.

For `CCc1cncnc1N1CCN(Cc2nc3ccc(C(F)(F)F)cc3[nH]2)CC1` (10 µM), which “number of time points” value is on record?
The value was 0.

For `CCN(CC)CCC(=O)N1N=C(c2c(-c3ccccc3)c3cc(Br)ccc3[nH]c2=O)CC1c1ccc(Br)cc1` (centres undefined) (2.5 µM), which “number of time points” value is on record?
The value was 0.

`Nc1cccc(-c2cc3c(Oc4cccc(O)c4)ncnc3[nH]2)c1` (10 µM) was tested. Which “number of time points” value did it give?
The value was 0.

`CCc1cccc(CC)c1NC(=O)N1Cc2[nH]nc(NC(=O)c3ccc(N4CCN(C)CC4)cc3)c2C1` (2.5 µM) was tested. Which “number of time points” value did it give?
Its value is 0.

`COc1ccccc1C(=O)/C=C/c1ccccc1C(=O)O` (10 µM) was tested. Which “number of time points” value did it give?
The value was 0.

How did the “number of time points” value turn out when `Cc1c(-c2ccc(C(N)=O)c3[nH]c4cc(C(C)(C)O)ccc4c23)cccc1-n1cnc2ccccc2c1=O` (2.5 µM) was run?
The value was 0.

For `O=C1NC(=O)/C(=C/c2ccc3nccc(-c4ccncc4)c3c2)S1` (10 µM), which “number of time points” value is on record?
Its value is 0.

`O=[N+]([O-])c1ccc(Nc2nc(N3CCOCC3)nc(N3CCOCC3)n2)cc1` (10 µM) was tested. Which “number of time points” value did it give?
Its value is 0.

For `Cc1cc(C)nc(NS(=O)(=O)c2ccc(NC(=S)NC(=O)COc3ccc(Br)cc3Cl)cc2)n1` (2.5 µM), which “number of time points” value is on record?
The value was 0.

How did the “number of time points” value turn out when `CCCNC(=O)Nc1ccc(Oc2ncnc3cc(OC)c(OC)cc23)cc1Cl` (2.5 µM) was run?
Its value is 0.

How did the “number of time points” value turn out when `CNC(=O)c1cc2c(Oc3ccc(NC(=S)NC(=O)Cc4ccccc4)cc3F)ccnc2cc1OC` [TAS-115 mesylate] (10 µM) was run?
Its value is 0.

How did the “number of time points” value turn out when `Cn1cc2cc(C(F)(F)c3nnc4ccc(-c5cnn(C6CC6)c5)nn34)c(F)cc2n1` [Bozitinib] (10 µM) was run?
Its value is 0.

Which “number of time points” value does the source give for `COc1cc2ncnc(Nc3ccccc3)c2cc1OC` (10 µM) here?
Its value is 0.

For `Cc1cccc(-c2[nH]c(C(C)(C)C)nc2-c2ccc3nccnc3c2)n1` (10 µM), which “number of time points” value is on record?
Its value is 0.

`Oc1cc(O)c2c(c1)OC1(c3ccc(O)c(O)c3)Oc3cc(O)c4c(c3C2C1O)OC(c1ccc(O)c(O)c1)C(O)C4` (centres undefined) [Procyanidin A1] (10 µM) was tested. Which “number of time points” value did it give?
The value was 0.

For `CC(C)C[C@@H](C(=O)Nc1ccn(C[C@@H](O)CO)n1)N1CC(Oc2ccccc2Cl)=CC1=O` [Dorzagliatin] (10 µM), which “number of time points” value is on record?
The value was 0.

`C=CC(=O)Nc1cc(Nc2nccc(-n3cc(CN(C)C)c(-c4ccccc4)n3)n2)c(OC)cc1N1CCOCC1` [Lazertinib] (10 µM) was tested. Which “number of time points” value did it give?
Its value is 0.

With `CC(=O)c1c(C)c2cnc(Nc3ccc(N4CCN(C(=O)CNc5cccc6c5C(=O)N(C5CCC(=O)NC5=O)C6=O)CC4)cn3)nc2n(C2CCCC2)c1=O` (centres undefined) (10 µM) as the molecule, how does the “number of time points” value read?
The value was 0.

Which “number of time points” value does the source give for `CC(C)(C)n1nc(Cc2ccccc2O)c2c(N)ncnc21` (10 µM) here?
Its value is 0.

`c1ccc(-c2nc(=NCCN3CCOCC3)sn2-c2ccccc2)cc1` [VP3.15 (dihydrobromide)] (10 µM) was tested. Which “number of time points” value did it give?
The value was 0.

How did the “number of time points” value turn out when `NC(=O)N1CCC(CC(=O)N2CCC([C@H]3c4ncc(Br)cc4CCc4cc(Cl)cc(Br)c43)CC2)CC1` [Lonafarnib] (2.5 µM) was run?
The value was 0.

With `O=c1cc(-c2cccc3c2Sc2ccccc2S3)oc(N2CCOCC2)c1` (10 µM) as the molecule, how does the “number of time points” value read?
The value was 0.

With `CN1CC[C@@H](c2c(O)cc(O)c3c(=O)cc(-c4ccc(C(F)(F)F)cc4Cl)oc23)[C@@H]1CO` [Voruciclib (hydrochloride)] (10 µM) as the molecule, how does the “number of time points” value read?
Its value is 0.

Which “number of time points” value does the source give for `CC(=O)N1CCC(c2cc(-c3ccc(NC(=O)c4cccn(-c5ccc(F)cc5)c4=O)cc3F)c3c(N)ncnn23)CC1` (0.5 µM) here?
The value was 0.

For `CC(C)(C[C@H](N)C(=O)O)C(F)F` [NV-5138 (hydrochloride)] (10 µM), which “number of time points” value is on record?
Its value is 0.

With `CC/C(=N\NC(=O)c1ccnc(NCCCN2CCOCC2)c1)c1ccc(Cl)cc1O` (2.5 µM) as the molecule, how does the “number of time points” value read?
The value was 0.

Which “number of time points” value does the source give for `CC(C)CNc1ccnc(NCc2csc(-c3ccccc3)n2)n1` [KHS101 hydrochloride] (2.5 µM) here?
The value was 0.

`Nc1nccc(Oc2ccc(NC(=O)c3c[nH]cc(-c4ccc(F)cc4)c3=O)cc2F)c1Cl` (10 µM) was tested. Which “number of time points” value did it give?
Its value is 0.

How did the “number of time points” value turn out when `Cc1nc(-c2cnn(C)c2)nc2c1[nH]c1ncc(-c3ccc(N4CCN(C)CC4)cc3)cc12` [GNE 220 (hydrochloride)] (10 µM) was run?
The value was 0.
